From patent US8901042B2, “High throughput screen for measuring membrane effects” (Cornell University, priority 2009, dated 2014)

Tested on: gramicidin A (gA) channels in DC22:1PC lipid bilayer vesicles
Assay: gramicidin-based stopped-flow fluorescence quench assay (Tl+ influx into ANTS-filled, gA-doped LUVs)
Assay type: biochemical, Bacillus brevis
Conditions: at the concentration where the molecules double or half the rate of fluorescence quenching
Protocol: 24 hours before fluorescence measurements, ANTS-filled liposomes were mixed 1:20 in S_Na_Buffer. For the portion of liposomes that are to be doped with gramicidin, the desired amount of gramicidins was added at this time. […] Gramicidin diluted in DMSO was used, but the added DMSO was kept to an absolute minimum (<0.1% of volume) as DMSO of >0.5% affects bilayer properties. The solution was stored at 12-13° C. in the dark.
The modifier in question was diluted in DMSO. The same amount of DMSO was added to all samples, including control.
For each condition: • 1. Use 1.5 mL of diluted ANTS-liposomes for each condition (compound, concentration). • 2. Add compound at the desired concentration and incubate for 10 min at 25° C. (keep in dark), or DMSO for controls. • 3. Record fluorescence, x8 repeats, with S_Na_Buffer (the first four should be removed due to mixing). • 4. Record fluorescence, x12 repeats, with S_Tl_Quencher (the first four should also be removed due to mixing).
Generate fluorescent liposomes. […] 1,2-Dierucoyl-sn-Glycero-3-Phosphocholine lipids, from Avanti Polar Lipids (Alabaster, Ala.), were bought in a lipid/chloroform solution and used without further purification. For each batch of vesicles, the lipid/chloroform solution was dried under nitrogen and then further dried in a dessicator under vacuum overnight to fully remove the chloroform. The dried lipid film was rehydrated in 100 mM NaNO3, 25 mM ANTS, 10 mM HEPES at pH 7.0 at room temperature over night, volume was adjusted to give a 10 mM lipid concentration. The suspension was then sonicated in a low power sonicator for 1 min, subjected to 5-6 freeze thaw cycles and extruded 21 times, at room temperature, using Avanti mini-extruder, Avanti Polar Lipids (Alabaster, Ala.), and a 0.1 μm Polycarbonate Membrane filter. External ANTS was removed by filtering though a PD-10 Desalting column, GE Healthcare (Piscataway, N.J.). Prepared ANTS-LUV stock was stored at 12-13° C. in the dark for a maximum of seven days. Before the fluorescence experiments ANTS-LUV stock was diluted 1:20 with 140 mM NaNO3, 10 mM HEPES, pH 7.0 buffer. For the portion of vesicles to be doped with gA the desired amount of gramicidin from Bacillus aneurinolyticus, Sigma Chemical Co. (St. Louis, Mo.), diluted in dimethylsulfoxide (DMSO) was added and incubated for 24 hours at 12-13° C. in the dark.
The final DMSO concentrations were kept consistent for all samples and under 0.5% with the exception of when DMSO was tested, then listed amounts where used and no DMSO was added to controls.
The fluorescence was measured using a SX.20 Stopped-Flow Spectrometer (Applied Photophysics, Leatherhead, UK), with a 150-W Xenon lamp, a two sample rapid mixing unit with machine dead time˜1.2 ms and a thermostatting water bath set to 25° C. The samples were excited at X=352 nm and fluorescence was recorded though λ=455 nm high pass filter with Pro-Data control software from Applied Photophysics, sampling 5000 points a second. For each sample at least 10 repeated mixing trials were measured, from two or more vesicle preparations. Each repeat was separately analyzed using MATLAB v7.4, The MathWorks, Inc (Natick, Mass.). The time course of fluorescence quenching was normalized to the average fluorescence without quencher, for that particular sample, and the first 2-100 ms of the time course was fitted with a stretched exponential. The initial influx rate is quantified as the rate of the stretched exponential at 2 ms.

Compound | Lipids/drug: number of lipids per molecule at their active concentration (~1/mAM)
Triton X-100 | 170
COc1cc(CNC(=O)CCCC/C=C/C(C)C)ccc1O [Capsaicin] | 25
(−)-epigallocatechin gallate | 50
CCCCCCCCO[C@@H]1O[C@H](CO)[C@@H](O)[C@H](O)[C@H]1O [β-octylglucoside] | 2600
O=c1c(-c2ccc(O)cc2)coc2cc(O)cc(O)c12 [Genistein] | 25
